# Results are given in words; binding and its absence hold for the method and conditions named. Some results given as binding are weak or reduced against the parent protein; the word gives no strength.
# Amino acid sequences for entries named in this document (tags omitted). Residues count along the entry.
# UniProt P40259, residues 29-159: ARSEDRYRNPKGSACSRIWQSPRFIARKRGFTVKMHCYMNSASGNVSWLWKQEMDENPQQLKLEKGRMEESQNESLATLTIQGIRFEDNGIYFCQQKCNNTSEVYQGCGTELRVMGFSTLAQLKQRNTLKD
# Key:
# [1] = target: human CD79B antigen (recombinant, coated in ELISA) (human) (UniProt P40259); test: ELISA, FACS, SPR (no details or numbers given)
# [2] = target: human CD79B antigen (recombinant, coated in ELISA) (human) (UniProt P40259); test: ELISA, purified antibody diluted 1:10 from 100 nM on coated antigen 1 µg/mL
binding [1],binding [2],Binder
binds,–,"humanized antibody hAb015-10 (antibody, human IgG1, kappa, V domains shown) VH: EVQLVQSGAEVKKPGSSVKVSCKASGSSFSSYGINWVKQAPGQGLEWIGEIFPRSGNTYYNEKFEGRATLTADKSTSTAYMELRSLRSEDTAVYYCAKGDLGDFDYWGQGTTVTVSS VL: DFVMTQTPLSLPVTPGEPASISCRSSQSIVHSDGNTYFEWYLQKPGQSPKLLIYKVSNRFSGVPDRFSGSGSGTDFTLKISRVEAEDVGVYYCFQGSHVPWTFGGGTKVEIKR"
binds,–,"humanized antibody hAb017-10 (antibody, human IgG1, kappa, V domains shown) VH: EVQLVQSGAEVKKPGASVKVSCKASGYTFTTYGINWVKQAPGQGLEWIGEIYPRSGNIYYNEKFKGKATLTADKSTSTAYMELRSLRSDDTAVYYCARGSDYDGDFAYWGQGTLVTVSS VL: DVVMTQTPLSLPVTPGEPASISCRSSQSIVHHDGNTYLEWYLQKPGQSPQLLIYKVSNRFSGVPDRFSGSGSGTDFTLKISRVEAEDVGVYYCFQGSHVPWTFGGGTKVEIKR"
–,binds,"monoclonal antibody mAb017 of mouse hybridoma cell (antibody, V domains shown) VH: QVQLQQSGAELARPGASVKLSCKASGYTFTTYGINWVKQRTGQGLEWIGEIYPRSGNIYYNEKFKGKATLTADKSSSTAYMELRSLTSEDSAVYFCARGSDYDGDFAYWGQGTLVTVSA VL: DVLMTQTPLSLPVSLGDQASISCRSSQSIVHHDGNTYLEWYLQKPGQSPKLLIYKVSNRFSGVPDRFSGSGSGTDFTLKISRVEAEDLGVYYCFQGSHVPWTFGGGTQLEIK"
–,binds,"monoclonal antibody mAb015 of mouse hybridoma cell (antibody, V domains shown) VH: QVQLQQSGAELARPGASVKLSCKASGSSFTSYGINWVKQRTGQGLEWIGEIFPRSGNTYYNEKFEGKATLTADKSSSTAYMELRSLTSEDSAVYFCAKGDLGDFDYWGQGTTLTVSS VL: DFLMTQTPLSLPVRLGDQASISCRSSQSIVHSDGNTYFEWYLQKPGQSPKLLIYKVSNRFSGVPDRFSGSGSGTDFTLKISRVEAEDLGVYYCFQGSHVPWTFGGGTKLEIK"
